Measured values taken from PubChem BioAssay AID504648 (National Center for Advancing Translational Sciences (NCATS), 2011).
The campaign covered roughly 390,000 compounds. About 610 (0.16%) were called active. The inconclusive results got no clear call from the source; some entries with a clear call stand among them for comparison. The call rests on the fitted dose curve; in most records, active means well fitted inhibition curve with a large enough effect; inconclusive means small, poorly fitted or top-dose-only effect, or effect the other way, or another doubt; inactive means no such curve, though single readings can be large or run the other way. A potency beside an inconclusive call is a rough fit, not a confirmed value.

assay: Nrf2 qHTS screen for inhibitors: counterscreen for cytotoxicity; settings: A549 ARE-Fluc cells, CellTiter-Fluor viability, 18-24 h; activity change, negative = cytotoxicity: at 46 µM (top of the series)
How it was run: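 A549 ARE-Fluc cells in 5% FBS OPTI-MEM, 5000 cells/well, rested 2 h then exposed to compounds in concentration-response for 18-24 h at 37 °C. Viability by CellTiter-Fluor fluorescence (Ex 405/Em 525) after 30 min; luciferase luminescence (BugLite, 15 min, RT) read afterwards.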
On the % scale 0 is the no-effect control and ±100 the full control effect; potency means the concentration at half of the fitted maximal effect.

Structure (SMILES)	Potency	activity change, negative = cytotoxicity
CCOC(=O)c1ccc(-c2ccc3ncnc(NCc4cccs4)c3c2)o1	inconclusive: 18.4 µM [activator, partial curve, poor fit]	
O=C(c1ccc(CNc2c(N3CCCC3)c(=O)c2=O)cc1)N1CC=C(c2ccccc2)CC1	inconclusive: 25.9 µM [activator, partial curve, poor fit]	
Cc1ccc(S(=O)(=O)Nc2ccc3c(c2)c2c(n3S(=O)(=O)c3ccc(C)cc3)CCCC2=O)cc1	inconclusive: 29.1 µM [falling, single point]	
CCOc1ccccc1OCCCOc1ccc([N+](=O)[O-])cc1Cl	inconclusive: 25.9 µM [activator, partial curve, poor fit]	
CCc1cccc(NC(=O)CC2Oc3ccc(C)cc3NC2=O)c1 (configuration not stated)		inactive: -0.738%
N#Cc1c(N)n(C2OC(CO)C(O)C2O)c2ncnc(N)c12 (configuration not stated)	inconclusive: 1.84 µM [falling, full curve]	
CCOC(=O)c1cccc(NC(=O)c2cnc(N3CCCCC3)c3ccccc23)c1		inactive: -5.84%
C[C@@H](NC(=O)c1[nH]cnc1C(=O)Nc1ccc(Cl)cc1)c1ccccc1	active: 18.4 µM	
COc1ccc(-n2c(=O)c3c(c4cc(OC)ccc4n3C)n(C)c2=O)cc1		inactive: 7.38%
CC[C@H]1OC(=O)[C@H](C)[C@@H](O[C@H]2C[C@@](C)(OC)[C@@H](O)[C@H](C)O2)[C@H](C)[C@@H](O[C@@H]2O[C@H](C)C[C@H](N(C)C)[C@H]2O)[C@](C)(O)C[C@@H](C)CN(C)[C@H](C)[C@@H](O)[C@]1(C)O	inconclusive: 29.1 µM [falling, partial curve, poor fit]	
CCN(Cc1ccc(Cl)s1)C(=O)c1cccc(OCc2c(C)noc2C)c1	inconclusive: 32.6 µM [falling, partial curve, poor fit]	
Cc1cc(C)c(/C=C/c2onc(C)c2S(=O)(=O)N2CCC(C(=O)Nc3ccc(Cl)c(C(F)(F)F)c3)CC2)c(C)c1	inconclusive: 29.1 µM [falling, single point]	
S=C(NCCc1ccccc1)Nc1ccccc1Cl	inconclusive: 7.31 µM [activator, partial curve, poor fit]	
CCOC(=O)CNC=C(C(=O)OCC)C(=O)OCC		inactive: 1.31%
O=C(NCC(c1cccs1)N1CCc2ccccc21)c1ccccc1 (configuration not stated)		inactive: -10.4%
COC(=O)Cc1c(C)c2cc3c(c(C)c2oc1=O)OCN(CCc1ccc(OC)cc1)C3	inconclusive: 14.6 µM [activator, partial curve]	
CCOC(=O)c1ccc(NC(=O)c2ccc(C)c(S(=O)(=O)N3CCOCC3)c2)cc1	inconclusive: 11.6 µM [falling, partial curve, poor fit]	

2 entries from above, reformatted.
Structure (SMILES) | Potency | activity change, negative = cytotoxicity
CCN(Cc1ccc(Cl)s1)C(=O)c1cccc(OCc2c(C)noc2C)c1 | inconclusive: 32.6 µM [falling, partial curve, poor fit] | 
Cc1cc(C)c(/C=C/c2onc(C)c2S(=O)(=O)N2CCC(C(=O)Nc3ccc(Cl)c(C(F)(F)F)c3)CC2)c(C)c1 | inconclusive: 29.1 µM [falling, single point] | 
